Patent US20040048866A1 (priority 2002, published 2004)
At least one compound was matched to its structure with a doubt left.

Target: T1, α1 and β1 subunits of guanylate cyclase (sGC), expressed in Sf9 cells (Homo sapiens, UniProt Q02108+Q02153)
T1 construct: made in house; host or cells: Sf9 insect cells (baculovirus co-infection); high-speed supernatant used unpurified
T1 sequence (Q02108 1-690): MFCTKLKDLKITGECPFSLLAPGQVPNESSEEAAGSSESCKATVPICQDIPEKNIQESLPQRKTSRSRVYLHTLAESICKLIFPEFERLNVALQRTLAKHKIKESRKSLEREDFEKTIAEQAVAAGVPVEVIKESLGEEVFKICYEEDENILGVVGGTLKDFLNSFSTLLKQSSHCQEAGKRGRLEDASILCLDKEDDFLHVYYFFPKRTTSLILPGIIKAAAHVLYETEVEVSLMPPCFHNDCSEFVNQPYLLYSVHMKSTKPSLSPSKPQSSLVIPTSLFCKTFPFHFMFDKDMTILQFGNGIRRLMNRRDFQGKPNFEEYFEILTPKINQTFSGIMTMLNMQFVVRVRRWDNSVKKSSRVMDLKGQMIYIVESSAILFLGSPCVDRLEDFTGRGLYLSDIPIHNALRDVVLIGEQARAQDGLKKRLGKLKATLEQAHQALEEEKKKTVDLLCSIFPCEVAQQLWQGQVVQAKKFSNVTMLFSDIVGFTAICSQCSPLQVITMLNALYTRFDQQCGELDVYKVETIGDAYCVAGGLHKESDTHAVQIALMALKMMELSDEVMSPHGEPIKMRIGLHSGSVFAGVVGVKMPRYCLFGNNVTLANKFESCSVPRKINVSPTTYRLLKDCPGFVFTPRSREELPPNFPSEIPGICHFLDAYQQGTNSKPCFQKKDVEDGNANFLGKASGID
T1 sequence (Q02153 1-619): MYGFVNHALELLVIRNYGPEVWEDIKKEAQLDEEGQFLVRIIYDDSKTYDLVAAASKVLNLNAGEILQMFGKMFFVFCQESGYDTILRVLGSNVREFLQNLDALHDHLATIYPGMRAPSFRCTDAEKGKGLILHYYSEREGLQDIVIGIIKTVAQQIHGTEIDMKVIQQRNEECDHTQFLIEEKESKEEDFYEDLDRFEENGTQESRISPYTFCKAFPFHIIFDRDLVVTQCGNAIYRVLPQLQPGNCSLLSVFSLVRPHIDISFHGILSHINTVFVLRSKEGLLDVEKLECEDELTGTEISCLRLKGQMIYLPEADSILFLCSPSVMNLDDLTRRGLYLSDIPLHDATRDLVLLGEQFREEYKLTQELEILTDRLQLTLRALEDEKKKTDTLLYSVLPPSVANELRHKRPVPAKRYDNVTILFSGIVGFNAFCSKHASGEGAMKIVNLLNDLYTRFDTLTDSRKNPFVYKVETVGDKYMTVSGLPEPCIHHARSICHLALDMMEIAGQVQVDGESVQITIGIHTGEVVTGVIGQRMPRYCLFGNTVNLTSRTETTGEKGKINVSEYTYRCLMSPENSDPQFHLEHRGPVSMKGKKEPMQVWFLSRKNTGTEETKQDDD
Assay: Guanylate Cyclase Assay (formation of cyclic GMP from GTP)
Type: biochemical
Settings: (activity at 100 μM with 1 μM SNP − activity at 100 μM)/(activity of SNP at 1 μM − basal activity of sGC)
Method: The cells were then infected with a mixture of the virus stocks for the α1 and β1 subunits of guanylate cyclase at a multiplicity of infection of 0.1 pfu/cell. The cells were harvested 72 hours after infection and were pelleted by centrifugation. The resulting cell pellets were homogenized with Polytron homogenizer in 3 volumes of 20 mM Tris-HCl (pH 7.6) containing 1 mM EDTA, 5 mM dithiothreitol, 90 mM NaCl, 10% glycerol, and protease inhibitors mix (Roche Molecular Biochemicals). The homogenate was centrifuged at 50,000×g for 60 minutes and the supernatant was aliquotted and stored at −80° C.
Compounds of the present invention were dissolved in DMSO to make 100 mM and saved as stocks at −20° C.
Guanylate cyclase activity was measured by the formation of cyclic GMP from GTP in a total volume of 100 μl. […] After the reaction, 0.9 ml of 50 mM sodium acetate buffer (pH 5.8) was added followed by boiling for 3 minutes to stop the reaction.
The data was normalized with the activity of 100 μM YC-1 (without SNP) as 100%. Mean basal efficacy, in Table 1, was expressed as a percentage of 100 μM YC-1 (without SNP).

OCc1ccc(Oc2nn(Cc3ccccc3)c3ccccc23)o1 [Example 1, {5-[(1-benzyl-1H-indazol-3-yl)oxy]-2-furyl}methanol]
Mean activation at 100 μM: 2.2
